From patent publication US20040259122A1
No constants are given. Whether binding was seen depends on the method and setting. Some entries that bind do so weakly or less than the wild type. Where a sequence is shown, tags or fusion partners need not be part of it.

B1: Ccl1 (activation domain fusion prey) (protein, UniProt P37366 1-393, looked up, not shown: large carriers)
chain: MTDIQLNGKSTLDTPSATMSAKEKEAKLKSADENNKPPNYKRISDDDLYRHSSQYRMWSYTKDQLQEKRVDTNARAIAYIEENLLKFREAHNLTEEEIKVLEAKAIPLTMEEELDLVNFYAKKVQVIAQHLNLPTEVVATAISFFRRFFLENSVMQIDPKSIVHTTIFLACKSENYFISVDSFAQKAKSTRDSVLKFEFKLLESLKFSLLNHHPYKPLHGFFLDIQNVLYGKVDLNYMGQIYDRCKKRITAALLTDVVYFYTPPQITLATLLIEDEALVTRYLETKFPSREGSQESVPGNEKEEPQNDASTTEKNKEKSTESEEYSIDSAKLLTIIRECKSIIEDCKPPSTEEAKKIAAKNYYCQNPSTLIQKLKRKLNGEDTSSTVEKKQKT
B2: Pcl10 (activation domain fusion prey) (protein, UniProt P53124 1-433, looked up, not shown: large carriers)
chain: MDMTKNHTTDTEEFDDGDIRPVSLGIVDDYNASFELPLKPKFLQSENFSDLTSEWDQSRSNTPGLAEGKTEKAQPCGTTDSSKNRIHVEQLLESANEMNNYLAQNIENINNFQVGLLNGGKGLYSSMGDDSSACINGTNFSSTSNFELSDDELEDTTGCTSSIFDKDLFHQQNGLSIPRRRSPLFKSPTASFEIGDATDVEEQDIDDSIFSECSSITSFDMGGLHISLPHDEEEDQEKTKSESENPLLHGIPVDVEVPHISVDEALANFKETIELLLKLSGNRKCTGFNTRVEKKEYSNFYMKSKPTLSSADFLKRIQDKCEYQPTVYLVATFLIDTLFLTRDGNNILQLKLNLQEKEVHRMIIAAVRLSTKLLEDFVHSHEYFSKVCGISKRLLTKLEVSLLICVCNTKLMVSNRKLAASKLLLNELRSFCV
B3: YDL100c (activation domain fusion prey) (protein, UniProt Q12154 1-354, looked up, not shown: large carriers)
chain: MDLTVEPNLHSLITSTTHKWIFVGGKGGVGKTTSSCSIAIQMALSQPNKQFLLISTDPAHNLSDAFGEKFGKDARKVTGMNNLSCMEIDPSAALKDMNDMAVSRANNNGSDGQGDDLGSLLQGGALADLTGSIPGIDEALSFMEVMKHIKRQEQGEGETFDTVIFDTAPTGHTLRFLQLPNTLSKLLEKFGEITNKLGPMLNSFMGAGNVDISGKLNELKANVETIRQQFTDPDLTTFVCVCISEFLSLYETERLIQELISYDMDVNSIIVNQLLFAENDQEHNCKRCQARWKMQKKYLDQIDELYEDFHVVKMPLCAGEIRGLNNLTKFSQFLNKEYNPITDGKVIYELEDKE

Biological target: Kin28 alone bait (pMK498)
Assay: yeast two-hybrid, growth in the presence of 3-AT

| binding | Binder |
| --- | --- |
| binds | B1 |
| binds | B2 |
| binds | B3 |
